# Experimental data reported in PubChem BioAssay AID1508600 (Functional Genomics Laboratory (NCATS/FGL), 2020).
# Screen size: about 53,000 sequences; about 3,700 (7%) were called active.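 How the source made its calls: active means gene knockdowns whose robust z-score for IL-1 alpha signal is at least 2 or at most -2, so actives lie on both sides; inactive means the rest.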 Some of the results follow.
# Experiment: Components of the Cytosolic LPS Sensing Pathway: Gene Identification via Genome-wide siRNA Screen;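 further: robust z of the log signal after scaling to non-targeting control siRNA wells of the plate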
# Details: RAW264.7 macrophages, IL-1a HTRF, actives lie on both sides, screened at 100 nM (by protocol), cells primed 5 h with Pam3CSK4 first
# Summary of the method: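 Three distinct siRNAs per gene were tested singly at 100 nM in RAW264.7 macrophages. Following Pam3CSK4 priming and 24 hour LipidA transfection, IL-1a secretion was read by HTRF.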
row,Sequence,z-score
1,GGAAGAACUUUUGGUUAUUTT against Dnah14,inactive: 1.35
2,GGACAACUAGCAGAUGGGATT against L3mbtl2,inactive: -1.1
3,GCCGUCACAAGAACUGAACTT against Apon,inactive: -0.24
4,GCAGCAUACAUAAUGUAACTT against Rbm48,inactive: 0.726
5,GGACAAACACUGUUUAUUCTT against Phf8,inactive: 0.0679
6,GCCAUUCUAAGCUGCCAAATT against Mcat,inactive: -0.000938
7,GGUAGAGUCUAACACGUGGTT against Ctsw,inactive: 1.05
8,GUGACCACUUUGCCACUUGTT against Olfr1259,inactive: -0.128
9,GGCAUCUUGGCACUCUACUTT against Tmem179b,inactive: 0.507
10,CCACUUUAGCUCCUUUAAGTT against Tet3,inactive: -0.438
11,GCUUACCAAAAGGAUAUCCTT against Zfand2b,inactive: -1.94
12,GCAUAGCUAACUCAGCAUATT against Map2k2,inactive: 1.09
13,GGGUCAGAAUUUUUGCUUCTT against Olfr328,inactive: -0.0364
14,GCUCAAUUUACAAAAGCCCTT against Pik3c2a,inactive: -0.961
15,CCCUCAGUUGUACCAUCAATT against Olfr298,inactive: -1.93
16,CCAACAAUUCUGCCAAGACTT against Arrb2,active: -2.57
17,GGCAUUACCAUUGGAUCUGTT against Mgl2,inactive: 0.219
18,GGGAAUGGCUUGAUUCUGUTT against Olfr609,inactive: 0.514
19,GGAAAGUUGAUAGAAAGUGTT against R3hcc1l,inactive: 0.114
20,GGAAAUCAACAUGUUAAAGTT against Mink1,inactive: 1.21
21,GGUGCUGAGGCUGAUUCUCTT against Capn15,active: 3.35
22,GGAAUCUGCAUGGUUUGCCTT against Vgll4,inactive: 0.466
23,GGAAAUACAAAUGAGUUGATT against Txndc9,inactive: 0.622

row,Sequence,z-score
1,GGCCUUUCUCACACUGCAUTT against Fto,inactive: -0.29
2,GGAUUGCUCAGUAUUCUACTT against Vmn1r49,inactive: 0.0272
3,GGCAGGCAAAAAGCCUUUUTT against Olfr1022,inactive: 0.687
4,GCUAUCCUUUCUUGCUGCATT against Tlr12,inactive: -0.0347
5,GGUCUUCAAGGCACAUAAGTT against Zbtb46,inactive: -0.489
6,GGUGCUAUUAUCGUGGAUCTT against Unc45a,inactive: 0.463
7,CAGCUCUCUUGCUCAAACATT against Olfr815,inactive: -0.829
8,GCUAAGAGCUGAAAGUGAATT against Cep170,inactive: -0.0689
9,GGGCUUUCUUUAUUUUGUGTT against Lcn10,inactive: -0.347
10,GGUGGUUUGUGUUACAUUUTT against Ifnar2,active: 2.38
11,CGAAACAUCAAUAAAUGCUTT against Penk,inactive: 0.18
12,GGUGUAGCUGGAAUUGGCATT against Nlrp4b,inactive: -0.0207
13,GGGUUCAGACAUGUUGUUATT against Ang,inactive: -0.577
14,GGUGCUCUGAGGAACUCCATT against Olfr1491,inactive: 0.622
15,GCUUAAUGAGGAAAUACCATT against Ptpn12,inactive: 0.759
16,CGCAAAACCGGGUCAAAUCTT against F9,inactive: 1.96
17,GGUAAAACAGGUUUAGAGATT against Slc1a4,inactive: -0.46
18,GGAUACCUUGCCUUUCUUATT against Bmpr1a,inactive: -0.538
19,GGGACAGGUUGAGGUCUAUTT against Vmn1r233,active: 2.01
20,GACCCAGAAAAAGGAGGGCTT against H2bc1,inactive: 1.14
21,GGAAUGGUUUUUCAAGACUTT against Iqca1l,inactive: -0.889
22,GCCCAAGAGUUGAGAUUCUTT against Kcnj14,inactive: 0.301
23,GGUGUUCGACUUUGAGCGCTT against Smad6,inactive: 1.88

row,Sequence,z-score
1,GGUUUUUCAAUUAAACGGATT against Cd63,inactive: -0.659
2,GCUCCAGAUGUUCAGAGCUTT against Fbxo9,active: -2.43
3,AACCAACUCAGCUUACAUUTT against Tcaim,inactive: -0.156
4,GGAAGAAUCCACUUUGAACTT against Chil4,inactive: 0.048
5,GGUCAUGGCAUUGAACAGUTT against Tbc1d7,inactive: -0.123
6,GGGACCAGAUGAAGAAGGATT against Coq4,inactive: 0.267
7,GGAGAAGAGUUAUUGGAUATT against Dnajb4,inactive: 0.901
8,GGUUGUGCUGAAGAGGUUGTT against Rpl18,inactive: 0.249
9,CCGGUCACCAAAUGACUUATT against Gm5105,inactive: 0.264
10,GGACUGUGAAAAGAUGUACTT against Prss30,inactive: -0.835
11,GGUGACUGACAGCUGCCAATT against Prima1,inactive: 0.0318
12,GGAAUGGAUAAAAACAUUGTT against Tank,inactive: 1.27
13,GCUAACCAGUAACUUCGAATT against Deup1,inactive: -0.741
14,GGAUUAUGUCCUGAAGAUGTT against Cyp8b1,inactive: 0.526
15,CGCCGAAACACUCGUUAUATT against Atp13a2,inactive: -0.153
16,GGUGAAGCUCACCAACAAUTT against Tbx20,inactive: 0.301
17,CCUCUGGAGGAGUAAGGUUTT against Trh,inactive: -0.497
18,GGUUCAGAUAUCUCAGUAUTT against Rcor2,inactive: -0.999
19,CCGUUUAUAAAGAUCAGCUTT against Sar1b,inactive: 1.92
20,GGACCACUCUGGUGGAUAATT against Stt3b,inactive: 0.341
21,GGGCUACUGAGAAAAUUACTT against Prr14,inactive: -0.206
22,CCGAGAACUACCUGUGUAATT against Unc119b,inactive: 0.266

# 4 entries picked at random from those above:
row,Sequence,z-score
6,GGGACCAGAUGAAGAAGGATT against Coq4,inactive: 0.267
17,CCUCUGGAGGAGUAAGGUUTT against Trh,inactive: -0.497
3,AACCAACUCAGCUUACAUUTT against Tcaim,inactive: -0.156
13,GCUAACCAGUAACUUCGAATT against Deup1,inactive: -0.741
